Earlier results in US20190175609A1, “THERAPEUTIC USES OF A C-RAF INHIBITOR” (Novartis AG, priority 2016, published 2019).
At least one structure is not confirmed: it was looked up by name or label, or the drawing left a doubt.

Test system: advanced NRAS-mutant melanoma
Settings: patients with NRAS-mutant melanoma; cited from earlier work

**Q.** Which “median PFS (95% CI)” value does the source give for `CN(C)/N=N/c1[nH]cnc1C(N)=O` [dacarbazine] here?
**A.** 1.5 (1.5-1.7)

**Q.** What about the overall response rate of the same compound?
**A.** 7%

**Q.** What about the “overall survival (95% CI)” value of the same compound?
**A.** 10.1 (7.0-16.5) months
